From paper PMC8595372 (Nature Communications, 2021)
Results are given in words; binding and its absence hold for the method and conditions named. Some entries that bind do so weakly or less than the wild type.

Protein sequences, listed by entry. Tags and fused reporters are not part of them.
UniProt P30281: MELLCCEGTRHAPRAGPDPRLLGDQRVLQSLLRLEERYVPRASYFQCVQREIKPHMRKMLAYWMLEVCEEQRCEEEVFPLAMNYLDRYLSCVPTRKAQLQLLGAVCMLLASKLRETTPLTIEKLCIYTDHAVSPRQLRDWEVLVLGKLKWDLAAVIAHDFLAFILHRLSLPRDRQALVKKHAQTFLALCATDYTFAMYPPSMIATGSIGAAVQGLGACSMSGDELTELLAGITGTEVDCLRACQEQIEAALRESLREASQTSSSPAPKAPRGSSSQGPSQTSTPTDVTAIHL

Biological target: Full-length human wild-type Cyclin D3 (human) (UniProt P30281)
Experiment: co-purification (GST-affinity chromatography, then SEC); His6-Cdk4 and GST-CycD3 co-expressed in Sf9 cells from Cre-fused vectors; complex captured by GST-affinity chromatography, then TEV protease cleavage and SEC

Q: “Full-length human wild-type Cdk4 (from UniProt P11802-1 1-303) (enzyme)” was tested. Which binding did it give?
A: binds
